Sequences of proteins named here, by UniProt entry; tags and fusion partners are left off. A change or cut given only in a name is not applied to a line headed by its entry.
UniProt Q9D9P8: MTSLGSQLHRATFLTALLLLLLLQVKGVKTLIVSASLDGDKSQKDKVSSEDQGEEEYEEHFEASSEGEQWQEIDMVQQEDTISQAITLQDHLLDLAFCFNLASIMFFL

According to PMC7261011:

Target: mouse SOF1 (sperm-oocyte fusion required 1) expressed in HEK293T cells (SOF1-1D4) (mouse) (UniProt Q9D9P8)
Test: co-IP; lysates of HEK293T cells coexpressing IZUMO1 and each of the other proteins; antibody-conjugated Protein A/G magnetic beads, 1 h at 4 °C; lysis buffer 50 mM Tris pH 7.5, 150 mM NaCl, 1% Triton X-100, 10% glycerol, 1 mM DTT; Western blot

- binding: binds
B1: recombinant mouse IZUMO1 expressed in HEK293T cells (IZUMO1-mCherry) (protein, UniProt Q9D9J7 22-397)
chain: CIKCDQFVTDALKTFENTYLNDHLPHDIHKNVMRMVNHEVSSFGVVTSAEDSYLGAVDENTLEQATWSFLKDLKRITDSDLKGELFIKELLWMLRHQKDIFNNLARQFQKEVLCPNKCGVMSQTLIWCLKCEKQLHICRKSLDCGERHIEVHRSEDLVLDCLLSWHRASKGLTDYSFYRVWENSSETLIAKGKEPYLTKSMVGPEDAGNYRCVLDTINQGHATVIRYDVTVLPPKHSEENQPPNIITQEEHETPVHVTPQTPPGQEPESELYPELHPELYPELIPTVAQNPEKKMKTRLLILLTLGFVVLVASIIISVLHFRKVSAKLKNASDEVKPTASGSKSDQSLSQQMGLKKASQADFNSDYSGDKSEATEN

Results are given in words; binding and its absence hold for the method and conditions named. In cells and extracts the contact can be indirect. Binding calls can cover weak binding; strength is not graded here.
